# In PubChem BioAssay AID1347423 (Functional Genomics Laboratory (NCATS/FGL), 2020):
# The whole screen tested about 52,000 sequences, of which about 210 (0.4%) were called active.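 How the source made its calls: active means gene whose silencing raises cell survival under the drug, median off-target-corrected z-score across its silencing RNAs 2 or more; inactive means the rest.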 The list shows a part of the results.
# Assay: Resistance to Poly (ADP-Ribose) Polymerase inhibitor: Gene Identification via Genome-wide siRNA Screen
# Conditions: mouse BRCA2 R2336H ES cells, olaparib, CellTiter-Glo viability; active compounds read high
# Summary of the method: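 Mouse BRCA2 R2336H ES cells were reverse-transfected with siRNA (20 nM final), treated at 48 h with 500 nM olaparib, and read by CellTiter-Glo after 72 h. Scores: MAD-based z per siRNA, median per gene, seed off-target correction.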
row,Sequence,z-score
1,CCUGCUAAGAGAGUACUAUTT against Pglyrp2,inactive: -1.93
2,GGACCUGAACAAUAAGGUUTT against Tagap,inactive: 0.00221
3,GGAGAUCCGAGUGAGGAAUTT against Eif3s9,inactive: -3.31
4,GCGUAUUUGGUGUUAAAAATT against Iars,inactive: -2.7
5,GGCUAACCACCCUCUUUCUTT against Rtn4rl1,inactive: -0.509
6,CCUUAUUUGGAUAUGCAGUTT against F2rl3,inactive: 0.247
7,GCUCCUCUGUAUAAAUUUUTT against Zfp512,inactive: 1.33
8,GGCUCACACUGGCUGAAGATT against H2-M10.4,inactive: -0.184
9,GGUCUUCCUAUCUAGAACCTT against 4933427L07Rik,inactive: 0.573
10,GGGCAAUGAUUUCGCCUUCTT against Ninj1,inactive: -0.231
11,GGUGAUGUCAAGAGUUUUCTT against Ptplb,inactive: 1.65
12,GGGACUUUGUAAACAGUUUTT against Peci,inactive: -1.27
13,GGAGAAGAAAAAGAAGGACTT against Pak1,inactive: -0.724
14,GGAAGGACUUAAACUUCAUTT against Csf2ra,inactive: 0.367
15,GCGGAUGAUCAAGAAUCGATT against Crebl1,inactive: 0.0752
16,GGUACUAUGGUUAAGCAGUTT against Dnd1,inactive: 1.06
17,GGCCAUGAGAAGAAGAAAGTT against 4933440J22Rik,inactive: 0.354
18,GGCAGAAAUCAAUGACUUGTT against Map2k7,inactive: -1.05
19,GGAGUGACCACAACAAUUGTT against Slc39a12,inactive: -1.62
20,CCUCGUCGAGUGGAAAAUUTT against C130099A20Rik,inactive: -2.62
21,GGAAUCGAAACCAAUGUGUTT against Il1rl2,inactive: 0.631
22,GGUACCCACCUUCGCUUAUTT against Ferd3l,inactive: 0.482

# Part of the list above in another layout:
row	Sequence	z-score
2	GGACCUGAACAAUAAGGUUTT against Tagap	inactive: 0.00221
10	GGGCAAUGAUUUCGCCUUCTT against Ninj1	inactive: -0.231

# (list continues)

row,Sequence,z-score
1,CGAUGAAUCAGAUUACUUUTT against Trip4,inactive: -0.492
2,GGUCAAUGUUUUAGUCAUATT against Olfr1138,inactive: 1.82
3,GCCAUGCUAAUCAAGACGGTT against 1700012P16Rik,inactive: 1.06
4,GGUACUGACGCAUCUGAGGTT against Spata5l1,inactive: 0.809
5,CGAAGGGACCGAAGAAUCCTT against 5730538E15Rik,inactive: -0.602
6,CGAGGAUGAGUUCAGUGAGTT against Pdcl3,inactive: -1.07
7,GGAGGUUUUGAUGGACUGUTT against 2610528H13Rik,inactive: -0.424
8,GGGAGUGAUUUAAAGUUUCTT against L3mbtl3,inactive: -0.34
9,GGGAGUCCUGAGUUUCAAATT against 4933400F01Rik,inactive: 2.12
10,GCUGUUACUCUUAAACAAATT against Pdhx,inactive: 0.303
11,GGAAUUGAACAACCUGUUGTT against Anapc5,inactive: -1.46
12,GGUUCAGUUAAGUAAACAGTT against Cdh17,inactive: 3.1
13,CCUACUCUGGUAAAACCUUTT against 1500034J20Rik,inactive: 1.25
14,GGGAAACAAAAAGCAGAUATT against 2610204L23Rik,inactive: -1.72
15,GGAGACUGAAGGAAAUUAATT against 2810025M15Rik,inactive: 0.232
16,GGUGAAGCAUCAGUGACAATT against Ubxd2,inactive: -0.712
17,GGAGGUGGAAUCUUUCCCUTT against Aplp1,inactive: 1.38
18,GGAAGAUCUAUACUGUGGUTT against Expi,inactive: 0.449
19,CCGGUAAUGGUGAUAAUUGTT against Sall2,inactive: -1.6
20,GGGCAUCUAUCUAUUUACCTT against Mrpl55,inactive: 1.64
21,GCACUUGUGCUUUCAAUAATT against Rhox1,inactive: -0.692
22,GGAGAUGGAGCAGGAAGAGTT against Kelchl,inactive: -0.117

# Already shown: entries from further up.
row,Sequence,z-score
15,GGAGACUGAAGGAAAUUAATT against 2810025M15Rik,inactive: 0.232
16,GGUGAAGCAUCAGUGACAATT against Ubxd2,inactive: -0.712

# Remaining list, next part:

row,Sequence,z-score
1,CCUGAUAAUCCUUGUACCATT against 2410002I01Rik,inactive: 0.39
2,CCUAUUUCCUUAUUUCCCGTT against Slc12a3,inactive: 0.942
3,CCCUAGAAUUCCAAAGAAATT against Sox7,inactive: 0.358
4,GGAGACCACUAGCUUCAAUTT against B430306N03Rik,inactive: 0.283
5,CCAGAAUGACGAUGCUGAATT against Ssrp1,inactive: -2.55
6,GGUUAUCCUCAUUGAUCCGTT against Rpl15,inactive: -2.09
7,GGAAGUCACCAUCAACCAGTT against Krt2-4,inactive: 0.152
8,GGGAAAACUUGGGUAUUUCTT against Pgrmc1,inactive: 0.906
9,CCGGACCUUAAAAAUGGGCTT against 4930465K10Rik,inactive: -0.256
10,GUAGAAAACAUCUCACAAUTT against Krtap21-1,inactive: 2.02
11,GGCCAAAGUCGAAUCAUAUTT against Hrmt1l1,inactive: -0.564
12,CCCUAUGGACUGAGUUUGUTT against Olfr183,inactive: -0.527
13,GGUAACUAACCUUAAUCUUTT against Slc16a1,inactive: 2.33
14,GCUACCUGCUCUAUACAUGTT against Crlf1,inactive: -0.169
15,GCACUCCUGAAAAUCACCUTT against E430019B13Rik,inactive: 1.59
16,GGACCACAGAUGAAUUGGATT against Relb,inactive: 1.67
17,CCACAAAGAAUGCAUUACUTT against BC022146,inactive: -1.42
18,GGCAAAGAGUGGUAAGAGUTT against Olfr1166,inactive: -0.938
19,GGAAGCCUUCACAAUCAUGTT against Myl2,inactive: 0.274
20,CCGUUUCUGUAUGACCUGGTT against Rbbp7,inactive: -1.88
21,GAAACUUCCUAAAUAACUUTT against V1rh5,inactive: 0.645
22,GGCAAUUCUUGACAAGAAUTT against Rbms3,inactive: 0.956
